# Source: PubChem BioAssay AID493014 (National Center for Advancing Translational Sciences (NCATS), 2011)
# This is one part of the list. Shown are side measurements of this screen, not its main read-out; they come without a call. Compounds called inactive in the main read-out are mostly missing here. The note in brackets gives the kind of curve behind each potency; many fits are weak.
# Test: qHTS Assay to Find Inhibitors of Chronic Active B-Cell Receptor Signaling
# Details: ABC-DLBCL IkBa-CBG/CBR reporter, luminescence ratio (green luciferase fused to IkBa over red control in TMD8 lymphoma cells), 4 h
# Method in brief: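 TMD8 human ABC-DLBCL cells with doxycycline-inducible IκBα–green luciferase fusion and unfused red luciferase, in 0.5% FBS medium; compounds up to 46 uM, 4 h at 37C. Green/red luminescence ratio, filter-overlap corrected, fitted to concentration-response curves.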
# [1] = measured here: CBR red luminescence, cell number
# [2] = measured here: IkBa-CBG green luminescence
SMILES,AC50 [1],AC50 [2]
Cc1cc(N/N=C/c2cccc(F)c2)nc(NCc2ccccc2)n1,"8.91 µM [rising, partial curve, poor fit]",
COc1ccc(OC)c(N2C(=O)CC(Cc3cc(C)cc(C)c3)C2=O)c1 (stereo not drawn),"29.1 µM [rising, single point]",
FC(F)(F)c1cc(-c2ccccc2)nc(-n2cc(Cl)cn2)n1,"10 µM [falling, partial curve, poor fit]",
O=C(COc1ccc([N+](=O)[O-])cc1)Nc1ccc(C(=O)Nc2ccccc2C(=O)O)cc1,"12.6 µM [falling, partial curve, poor fit]",
Cc1cc(C(=O)N/N=C/c2ccc(O)c([N+](=O)[O-])c2)n[nH]1,"10.3 µM [falling, partial curve, poor fit]",
COc1ccc(N(C)C(=O)c2cn(CC(C)C)c(=O)c3cc(OC)c(OC)cc23)c(OC)c1,"35.5 µM [falling, single point]",
CCc1nnc(NC(=O)CSc2nnc3c(C)cc4c(C)ccc(C)c4n23)s1,"18.4 µM [rising, partial curve, poor fit]",
Cc1ccc(-c2csc3ncnc(SCC(=O)NCC4CCCO4)c23)cc1 (stereo not drawn),"29.1 µM [falling, single point]",
CCOC(=O)CSc1nnc(CNC(=O)Cc2ccccc2)n1-c1ccccc1OC,"7.08 µM [falling, partial curve]",
COC(=O)c1sc(N2C(=O)c3oc4ccccc4c(=O)c3C2c2cccs2)nc1C (stereo not drawn),"1.84 µM [rising, partial curve, poor fit]",
O=C(Nc1ccccc1)c1cc2n(n1)C(C(F)(F)F)CC(C1CC1)N2 (stereo not drawn),"0.631 µM [rising, partial curve, poor fit]",
CC(=O)Nc1ccc(NC(=O)/C(Cl)=C/c2ccccc2)cc1,"0.891 µM [rising, full curve]",
CCN1CCN(CC(O)COc2ccc3c(C)cc(=O)oc3c2)CC1 (stereo not drawn),"4.47 µM [rising, partial curve, poor fit]",
CC(NC(=O)OCc1ccccc1)C(=O)N1CC(O)CC1C(=O)O (stereo not drawn),"0.0461 µM [falling, full curve, poor fit]",
COc1cc(SC)ccc1C(=O)Nc1cc(C)ccn1,"6.31 µM [falling, partial curve]",
CC(=O)N1CCC(N(C(=O)Nc2ccc(Cl)cc2)C(C)C)CC1,"11.2 µM [rising, partial curve, poor fit]",
Oc1[nH]c2ccc(Br)cc2c1N=NC(=S)NCC1CCCO1 (stereo not drawn),"3.98 µM [rising, single point]","5.62 µM [falling, single point]"
CCCOc1cccc(C(=O)NCCNC(=O)c2ccccn2)c1,"35.5 µM [rising, single point]","11.2 µM [falling, partial curve, poor fit]"
Cc1cc(C)cc(NC(=O)c2ccc([N+](=O)[O-])o2)c1,"3.16 µM [falling, single point]",
O=C(NNc1nc2ccc(F)cc2s1)c1cccc(F)c1,"12.6 µM [falling, partial curve, poor fit]",

# Part of the list above, set out differently:
SMILES | AC50 [1] | AC50 [2]
COc1cc(SC)ccc1C(=O)Nc1cc(C)ccn1 | 6.31 µM [falling, partial curve] | 
CC(=O)N1CCC(N(C(=O)Nc2ccc(Cl)cc2)C(C)C)CC1 | 11.2 µM [rising, partial curve, poor fit] | 

# Remaining list, next part.

SMILES,AC50 [1],AC50 [2]
Cc1ccc(NC(=O)Nc2ccccc2CC[N+](=O)[O-])cc1,"11.2 µM [falling, partial curve, poor fit]",
CCOC(=O)CSc1nc(N)c(C(=O)Nc2ccc(N(C)C)cc2)s1,"35.5 µM [falling, single point]",
Cc1[nH]c2ccccc2c1C(=O)CSc1ccccc1,"1.84 µM [rising, full curve]",
Cc1cc(C)c(C2C(C#N)=C(N)Oc3n[nH]c(C)c32)cc1CN1CCCC1 (stereo not drawn),"5.8 µM [falling, partial curve]",
O=C(Nc1nnc(-c2ccco2)o1)c1ccc([N+](=O)[O-])s1,"5.01 µM [falling, full curve]",
CN(C)C(=O)c1cc2cc(Br)ccc2s1,"7.08 µM [rising, partial curve]",
O=C(Nc1cccc(Cl)c1)N1CCc2ccccc2C1,"11.2 µM [falling, partial curve, poor fit]",
CCC(Sc1ncnc2c1nnn2-c1ccc(F)cc1)C(=O)OC (stereo not drawn),"35.5 µM [falling, single point]",
O=C(NNC(=S)NCC1CCCO1)c1cc(Br)ccc1Cl (stereo not drawn),"31.6 µM [rising, single point]",
COC(=O)C(C)n1cnc2c(nnn2-c2ccccc2)c1=O (stereo not drawn),"0.447 µM [rising, full curve, poor fit]",
CC(C)C(=O)Nc1cccc(NC(=O)c2cc3ccccc3o2)c1,"0.731 µM [falling, partial curve]",
CN(C(=O)COC(=O)/C=C/c1ccc2ccccc2n1)C1CCS(=O)(=O)C1 (stereo not drawn),"8.91 µM [falling, partial curve]",
CCCCCCOC(=O)/C=C/c1c(C)[nH]c(=O)[nH]c1=O,"14.6 µM [rising, partial curve, poor fit]",
CCOCc1nnc(NC(=O)c2ccco2)s1,"1.46 µM [rising, full curve]",
COc1ccc(/C=N/Nc2nc(Nc3ccccc3)nc(N3CCCCC3)n2)cc1OC,"1.12 µM [falling, partial curve]",
CCCCOC(=O)c1ccc(NC(=S)NC(=O)c2ccco2)cc1,"35.5 µM [rising, single point]",
COc1ccccc1N1CCN(C2CCCN(C(=O)c3cccc(-c4ccco4)c3)C2)CC1 (stereo not drawn),"6.31 µM [falling, full curve, poor fit]",
Cc1ccc2c(c1)[C@H]1[C@H](CO2)[C@H](c2ccccc2)[C@]2(C)C(=O)Nc3ccccc3C(=O)N12,"3.26 µM [falling, full curve]","3.66 µM [rising, partial curve, poor fit]"
O=C(Nc1cccc(Cl)c1)c1cc2c(=O)n3ccccc3nc2s1,"2.82 µM [rising, partial curve, poor fit]",
CCCOc1ccc(C(=O)Nc2ccc3c(c2)OCO3)cc1,"1.12 µM [falling, full curve, poor fit]",
